From PMC11139906
Results are given in words; binding and its absence hold for the method and conditions named. In cells and extracts the contact can be indirect. Some results given as binding are weak or reduced against the parent protein; the word gives no strength. Where a sequence is shown, tags or fusion partners need not be part of it.

Sequences of proteins named here, by UniProt entry; tags and fusion partners are left off.
UniProt Q86WV6: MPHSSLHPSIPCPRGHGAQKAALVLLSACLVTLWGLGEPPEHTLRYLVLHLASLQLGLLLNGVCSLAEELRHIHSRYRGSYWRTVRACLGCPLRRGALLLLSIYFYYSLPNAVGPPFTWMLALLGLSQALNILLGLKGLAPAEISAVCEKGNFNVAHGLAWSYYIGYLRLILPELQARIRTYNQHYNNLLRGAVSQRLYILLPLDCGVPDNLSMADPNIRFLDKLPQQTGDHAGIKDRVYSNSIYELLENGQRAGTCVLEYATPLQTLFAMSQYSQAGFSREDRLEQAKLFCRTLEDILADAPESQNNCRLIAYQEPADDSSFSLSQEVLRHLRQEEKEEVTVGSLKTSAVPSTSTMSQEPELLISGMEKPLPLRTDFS

Key:
[1] = target: T1, Flag-TCAF1 (human) (UniProt Q9Y4C2); assay: proximity ligation; HeLa cells expressing the two tagged proteins, fixed with 4% paraformaldehyde, permeabilised with 0.2% Triton X-100; Duolink PLUS and MINUS probes; cells untreated or treated with plasmid DNA (2 ug/ml, 7 h), cGAMP (5 ug/ml, 7 h), HU or MnCl2, with control or TCAF1 knockdown
T1 sequence: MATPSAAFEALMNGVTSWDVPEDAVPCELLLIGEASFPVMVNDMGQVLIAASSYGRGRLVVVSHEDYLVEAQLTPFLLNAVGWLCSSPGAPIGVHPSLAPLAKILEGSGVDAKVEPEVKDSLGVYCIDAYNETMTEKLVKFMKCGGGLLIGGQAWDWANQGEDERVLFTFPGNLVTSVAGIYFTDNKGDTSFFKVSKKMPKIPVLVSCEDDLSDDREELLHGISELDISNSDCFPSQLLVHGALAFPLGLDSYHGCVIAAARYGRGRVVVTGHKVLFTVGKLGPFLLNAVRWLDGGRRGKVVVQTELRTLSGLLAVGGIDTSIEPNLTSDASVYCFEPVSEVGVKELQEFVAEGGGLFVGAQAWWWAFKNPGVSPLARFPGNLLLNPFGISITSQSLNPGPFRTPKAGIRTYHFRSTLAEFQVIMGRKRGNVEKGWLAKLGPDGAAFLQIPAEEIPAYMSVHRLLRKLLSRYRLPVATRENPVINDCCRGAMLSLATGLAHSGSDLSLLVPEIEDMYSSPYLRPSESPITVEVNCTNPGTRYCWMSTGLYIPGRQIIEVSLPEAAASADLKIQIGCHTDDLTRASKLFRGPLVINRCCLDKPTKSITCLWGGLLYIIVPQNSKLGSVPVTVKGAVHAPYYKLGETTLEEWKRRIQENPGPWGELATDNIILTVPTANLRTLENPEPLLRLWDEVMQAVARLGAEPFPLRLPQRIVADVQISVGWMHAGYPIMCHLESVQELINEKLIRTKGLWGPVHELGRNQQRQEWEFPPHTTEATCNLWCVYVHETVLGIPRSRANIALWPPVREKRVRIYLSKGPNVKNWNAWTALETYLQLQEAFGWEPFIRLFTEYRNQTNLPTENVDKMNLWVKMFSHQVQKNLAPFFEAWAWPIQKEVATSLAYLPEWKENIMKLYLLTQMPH

[2] = target: T1, Flag-TCAF1 (human); assay: co-IP; 293T cells; lysate on anti-Flag M2 magnetic beads, 1.5 h, 4 C; lysis buffer 10 mM NaKPO4 pH 7.2, 150 mM NaCl, 1% sodium deoxycholate, 1% Triton X-100; also with STING knockdown or TRPV2 knockdown

For STING-HA (from UniProt Q86WV6 1-379), the binding [1] was “binds”.
With “STING(WT)-HA (from UniProt Q86WV6 1-379)” the binding [2] was “binds”.
